From PubChem BioAssay AID485314 (National Center for Advancing Translational Sciences (NCATS), 2010)
The campaign covered roughly 340,000 compounds. About 4,500 (1.3%) were called active. The shares of active, inactive and inconclusive entries below differ from those in the screen. Calls come from the whole dose curve; as a rule, active = well fitted inhibition curve with a large enough effect; inconclusive = small, poorly fitted or top-dose-only effect, or another doubt; inactive = no such curve, though single readings can be large or run the other way. A potency beside an inconclusive call is a rough fit, not a confirmed value.

Molecular target: DNA polymerase beta (Homo sapiens) (UniProt P06746)
Assay: qHTS Assay for Inhibitors of DNA Polymerase Beta
Settings: Pol beta primer extension/strand displacement, fluorescence kinetic; activity change, negative = inhibition: at 114 µM (top of the series)
Method in brief: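 10 nM enzyme + cpd, 15 min RT; start with substrate 50 nM final; read 0 min and after 10 min RT. Corrected, normalized data; 4-parameter Hill curve fit.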
% is set by controls: 0 for no effect and ±100 for the full control effect; potency is the fitted concentration of half-maximal effect.

| SMILES | Potency | activity change, negative = inhibition |
| --- | --- | --- |
| Cc1ccc(NC(=O)NC(=O)N(C(C)C)S(=O)(=O)c2ccc(C)cc2)cc1 | active: 89.1 µM | – |
| COc1ccc(C2=CC3=C(Br)C(=O)C(C)(OC(=O)C4CCCC4)C(=O)C3=CO2)cc1 (stereo not drawn) | active: 35.5 µM | – |
| Cc1ccc[n+](-c2nc([O-])sc2C=O)c1 | inconclusive: 63.1 µM [inhibitor, partial curve, poor fit] | – |
| COC(=O)C1=C(C)NC(=S)NC1c1ccc(OC(=O)c2ccco2)cc1 (stereo not drawn) | inconclusive: 70.8 µM [inhibitor, single point] | – |
| O=C(O)c1ccccc1N/N=C/C1=C(N2CCOCC2)C(=C\c2ccccc2)/CC1 | inconclusive: 44.7 µM [inhibitor, partial curve] | – |
| CN(c1ccccc1)S(=O)(=O)c1nnc(NC(=O)COc2ccccc2)s1 | inconclusive: 50.1 µM [inhibitor, single point] | – |
| Cc1cccc(N2CCN(c3ccc(C(=O)O)cc3NC(=O)c3cccc(Cl)c3)CC2C)c1 (stereo not drawn) | active: 31.6 µM | – |
| COc1ccc(CCNC(=O)c2nc(SCc3ccccc3F)ncc2Cl)cc1OC | inconclusive: 25.1 µM [inhibitor, single point] | – |
| CCOC(=O)c1[nH]c(=O)[nH]c1CSc1ccccn1 | inconclusive: 89.1 µM [inhibitor, single point] | – |
| CCCOc1cccc(NC(=O)c2c(-c3ccccc3)noc2C)c1 | inconclusive: 39.8 µM [inhibitor, single point] | – |
| Cn1nnnc1SCc1nc2scc(-c3ccc(Cl)cc3)c2c(=O)[nH]1 | – | inconclusive: -75.6% [inhibitor] |
| CCOC(=O)Cc1cc(=O)n2[nH]c(-c3ccc(C)cc3)cc2n1 | active: 22.4 µM | – |
| O=C(CCN1C(=O)S/C(=C\C=C\c2ccccc2)C1=O)Nc1ccc(O)cc1 | – | inconclusive: -57.2% [inhibitor] |
| Cc1ccc(-c2nc3c(c(=O)[nH]c(=O)n3Cc3ccccc3)n2C)o1 | active: 10 µM | – |
| O=C(CCCOc1ccc(Cl)cc1Cl)N/N=C/c1cccc([N+](=O)[O-])c1 | inconclusive: 4.47 µM [inhibitor, full curve, poor fit] | – |
| O=C(O)c1c2c(nc3ccc(S(=O)(=O)N4CCC(C(=O)NCc5ccc(Cl)cc5)CC4)cc13)CCCC2 | – | inconclusive: -52.2% [inhibitor] |
| CCCCCOc1ccc(NC(=O)Cn2c(-c3cncs3)nc3ccccc32)cc1 | inactive | – |
| COc1ccc(-c2cc(C(=O)O)c3ccccc3n2)c(OC)c1 | inconclusive: 89.1 µM [inhibitor, single point] | – |
| Cn1nnnc1SCC(=O)N1c2ccccc2CCc2ccccc21 | inconclusive: 89.1 µM [inhibitor, single point] | – |
| Cc1ccccc1Cn1ccc(NC(=O)c2nn3cccnc3c2Cl)n1 | inactive | – |
| Cc1cc(C)n(CCC(=O)N/N=C/c2ccc(Br)c([N+](=O)[O-])c2)n1 | inconclusive: 20 µM [inhibitor, single point] | – |
| CCCCN(CC)C(=O)c1ccc(-c2ccccc2)cc1 | inactive | – |

| SMILES | Potency | activity change, negative = inhibition |
| --- | --- | --- |
| COc1ccc(-n2c(SCC(=O)Nc3ccc(NC(C)=O)cc3)nc3c([nH]c4ccccc43)c2=O)cc1OC | inconclusive: 4.47 µM [inhibitor, full curve, poor fit] | – |
| CCOC(=O)c1ccc(/C=C2/C=C(c3ccccc3)N(c3ccc(Cl)c(C(=O)O)c3)C2=O)cc1 | active: 31.6 µM | – |
| O=c1c2ccccc2nc2n1CCc1c-2[nH]c2ccccc12 | inconclusive: 44.7 µM [inhibitor, partial curve] | – |
| CC(=O)c1c(O)c2ccccc2n(C(C)C)c1=O | inconclusive: 35.5 µM [inhibitor, single point] | – |
| O=C(CN1C(=O)C2(SCC(=O)N2c2ccc(Cl)cc2)c2ccccc21)NCCc1ccccc1 (stereo not drawn) | inconclusive: 89.1 µM [inhibitor, single point] | – |
| C/C(=N\Nc1ccc(F)cc1F)c1ccc(F)cc1 | inconclusive: 25.1 µM [inhibitor, full curve, poor fit] | – |
| O=C(NC(=S)Nn1cnc2c(cnn2-c2ccccc2)c1=O)c1ccc(Oc2ccccc2)cc1 | inconclusive: 56.2 µM [inhibitor, partial curve] | – |
| COc1cc(OC)c(OC)cc1/C=C1\Oc2cc(OCC(=O)N3Cc4ccccc4C[C@H]3C(=O)O)ccc2C1=O | inconclusive: 11.2 µM [inhibitor, full curve, poor fit] | – |
| CN(Cc1ccccc1NS(=O)(=O)c1ccc(Cl)cc1)C1CCCCC1 | inconclusive: 79.4 µM [inhibitor, single point] | – |
| COc1ccc(-c2[nH]nc3c2C(c2ccoc2)C(C#N)=C(N)O3)cc1 (stereo not drawn) | inconclusive: 10 µM [inhibitor, full curve, poor fit] | – |
| CN(C)S(=O)(=O)c1ccc(NC(=O)Cc2ccc(S(=O)(=O)N3CCOCC3)s2)cc1 | inconclusive: 89.1 µM [inhibitor, single point] | – |
| Oc1cc2c(c(Cl)c1O)CCNCC2c1ccccc1 (stereo not drawn) | inconclusive: 12.6 µM [inhibitor, partial curve] | – |
| Cc1csc(N/N=C/c2ccc(O)c([N+](=O)[O-])c2)n1 | active: 25.1 µM | – |
| COc1ccc(Cl)cc1NC(=O)c1c(NCc2cccs2)sc2c1CCCC2 | inconclusive: 89.1 µM [inhibitor, single point] | – |
| COc1cc(OC)c(NC(=O)CN(C)S(=O)(=O)c2ccc(-c3ccc(=O)[nH]n3)s2)cc1Cl | inconclusive: 39.8 µM [inhibitor, single point] | – |
| Cc1ccc(/C=C(/C#N)C(=O)NC(C)c2ccccc2)o1 (stereo not drawn) | inactive | – |
| Cc1cc(C)n(-c2ncc3c(n2)N(CCO)CCOC3=O)n1 | inactive | – |
| CCOc1ccc(OCc2ccc(C(=O)N3CCOCC3)cc2)cc1 | inactive | – |
| CN(C)c1ccc(NC(=O)CSC2=Nc3ccccc3C3=NC(CC(=O)NCc4ccc5c(c4)OCO5)C(=O)N23)cc1 (stereo not drawn) | inconclusive: 79.4 µM [inhibitor, partial curve] | – |
| CC(C)C(=O)c1cc2c(cc1NC(=O)c1ccccc1F)OCCO2 | inactive | – |
| CCOC(=O)C1(CC2CC2)CCN(Cc2ccc(OC)cc2F)CC1 | active: 89.1 µM | – |

Part of the list above, bar-delimited:
SMILES | Potency | activity change, negative = inhibition
CN(C)S(=O)(=O)c1ccc(NC(=O)Cc2ccc(S(=O)(=O)N3CCOCC3)s2)cc1 | inconclusive: 89.1 µM [inhibitor, single point] | –
CCOC(=O)C1(CC2CC2)CCN(Cc2ccc(OC)cc2F)CC1 | active: 89.1 µM | –
